Measured values reported in PubChem BioAssay AID624297 (National Center for Advancing Translational Sciences (NCATS), 2012).
Among all 340,000 compounds or so, about 6,200 (1.8%) were called active. The inconclusive results got no clear call from the source; some entries with a clear call stand among them for comparison. Calls come from the whole dose curve; as a rule, active = well fitted activation curve with a large enough effect; inconclusive = small, poorly fitted or top-dose-only effect; inactive = no such curve, though single readings can be large or run the other way. Potencies beside an inconclusive call are fits to weak or partial responses and may not hold up.

Assay: A quantitative high throughput screen for small molecules that induce DNA re-replication in SW480 colon adenocarcinoma cells. For re-replication activation: % of control where 0% means no effect. Note: nearly all actives have a fitted effect of over 55% in size.
Details: Hoechst DNA content imaging, 48 h; re-replication activation: at 46.1 µM (top of the series)
How it was run: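 First, 250 cells per well were seeded. Next, compound or vehicle (23 nL) was pinned in, plates sat 48 hr at 37 C. Finally Hoechst was added for 40 min before fluorescence scanning.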
Potency is the fitted concentration of half-maximal effect.

| Compound | Potency | re-replication activation |
| --- | --- | --- |
| CC1(CCC(=O)N2CCCC(Nc3ccc(F)cc3)C2)CC1 (stereo not drawn) | inactive | – |
| O=C(COc1ccc2c3c(c(=O)oc2c1)CCCC3)NC(Cc1ccc(Cl)cc1)C(=O)O (stereo not drawn) | inactive | – |
| COc1cccc(-n2c(SCC(=O)Nc3nc4ccccc4s3)nc3ccccc3c2=O)c1 | inactive | – |
| Cc1ccc(NC(=O)c2nc[nH]c2C(=O)Nc2ccc(C)cc2)cc1 | inconclusive: 29.1 µM [activator, single point] | – |
| CC(C)Oc1ccc(Cl)cc1Nc1nc(NCCO)nc(N2CCCC2)n1 | inconclusive: 29.1 µM [activator, single point] | – |
| C[C@@H]1CCC2[C@](C)(CO)[C@@H](O)CC[C@]2(C)[C@@]12C[C@](CO)(CC(=O)O)CO2 (stereo partly drawn) | inactive | – |
| CC(C)(C)n1nnnc1C(c1cccc(C#N)c1)N1CCCCCC1 (stereo not drawn) | inconclusive: 3.98 µM [activator, full curve, poor fit] | – |
| CCN(CC)c1ccc(/C=N/NC(=S)NCc2ccco2)cc1 | inconclusive: 18.4 µM [activator, partial curve, poor fit] | – |
| COc1ccccc1/C=C/CN1CCSCC1 | inactive | – |
| O=C(c1ccc(Cl)c(Cl)c1)N1CCC(=O)N(C(COCc2ccc(Cl)cc2)Cc2ccccc2)CC1 (stereo not drawn) | inconclusive: 29.1 µM [activator, single point] | – |
| CC1CN(S(=O)(=O)c2ccc(C(=O)Nc3nnc(-c4ccco4)o3)cc2)CC(C)O1 (stereo not drawn) | inconclusive: 16.4 µM [activator, single point] | – |
| CC(=O)Nc1ccc(NC(=O)COC(=O)Cc2c[nH]c3ccccc23)cc1 | inconclusive: 16.4 µM [activator, single point] | – |
| CC1(C)Cc2nc3sc4c(=O)n(CC(=O)NCc5ccccc5)cnc4c3cc2CO1 | inconclusive: 4.61 µM [activator, single point] | – |
| COc1cc(OC)cc(C(=O)NNC(=O)CCOc2ccccc2OC)c1 | inconclusive: 4.11 µM [activator, single point] | – |
| O=C(Nc1cccc2oc(=O)ccc12)c1ccc([N+](=O)[O-])cc1[N+](=O)[O-] | active: 16.4 µM | – |
| CCn1cc(C(=O)NCCCN2CC(C)CC(C)C2)c(=O)c2cc(S(=O)(=O)N(C)C)ccc21 (stereo not drawn) | inactive | – |
| CC(=O)C1=C(O)C(=O)N(c2ccc(Br)cc2)C1c1ccc(Br)cc1 (stereo not drawn) | inactive | – |
| CC1(C)C[C@H]2C3=CCC4[C@@]5(C)CC[C@H](O)[C@](C)(CO)C5CC[C@@]4(C)[C@]3(C)C[C@H]3O[C@@H]1[C@H](O)[C@]32CO (stereo partly drawn) | inactive | – |
| CCOC(=O)CSc1cc(-c2ccccc2)nc2ncnn12 | inactive | – |
| O=C(COc1ccc(S(=O)(=O)N2CCOCC2)cc1Cl)NCCCn1ccnc1 | active: 7.31 µM | – |
| CCN(CC)S(=O)(=O)c1cc(C(=O)Nc2cc(C)on2)c(Cl)cc1Cl | inconclusive: 16.4 µM [activator, partial curve, poor fit] | – |
| Cc1ccc(SCC(=O)NC2CC2)cc1 | inconclusive: 7.31 µM [activator, single point] | – |
| CC(C)NC(=O)COc1ccc(Cl)cc1Cl | active: 16.4 µM | – |

| Compound | Potency | re-replication activation |
| --- | --- | --- |
| Cc1ccc(C2C3CSCC=C3C(C#N)=C(N)C2(C#N)C#N)cc1 (stereo not drawn) | inactive | – |
| NNC(=O)CP(=O)(c1ccccc1)c1ccccc1 | inactive | – |
| COc1ccc(CCNC(=O)c2ccc3c(c2)N(Cc2ccccc2)CCS3)cc1OC | inconclusive: 0.82 µM [activator, full curve, poor fit] | – |
| Cc1ccc2nnnc(-c3ccccc3)c2c1 | inconclusive: 32.6 µM [activator, partial curve, poor fit] | – |
| CC(C)CC(=O)NC(=S)Nc1cc(C(F)(F)F)ccc1N1CCOCC1 | inconclusive: 10.3 µM [activator, partial curve, poor fit] | – |
| CCSC1=N/C(=C\c2cccnc2)C(=O)N1c1ccccc1 | inconclusive: 20.6 µM [activator, single point] | – |
| CCOc1ccc(NCc2cccn2-c2nnc(N3CCC(C(=O)NCCCN4CC(C)CC(C)C4)CC3)s2)cc1 (stereo not drawn) | inconclusive: 20.6 µM [activator, single point] | – |
| Cc1cc(C2(O)C(=O)Nc3ccccc32)ccc1F (stereo not drawn) | inactive | – |
| Cc1ccn2c(=O)nc(SCC(=O)Nc3ccc4c(c3)OCCO4)nc2c1 | inconclusive: 29.1 µM [activator, single point] | – |
| COc1ccc(OC)c(NC(=O)c2csc(Cl)c2OC)c1 | inconclusive: 3.26 µM [activator, partial curve, poor fit] | – |
| Cc1sc2nc(CN3CCCC3)nc(Cl)c2c1C | inconclusive: 20.6 µM [activator, single point] | – |
| COc1ccc(-c2noc3c2-c2nc(-c4ccccc4F)sc2CC3)cc1 | inconclusive: 0.116 µM [activator, full curve, poor fit] | – |
| COc1ccc(C2CC(=O)c3c(O)cc(O)cc3O2)c(CC=C(C)C)c1OC (stereo not drawn) | inconclusive: 0.461 µM [activator, partial curve, poor fit] | – |
| O=C(N/N=C/C=C/c1ccco1)c1ccccc1Cl | inactive | – |
| Nc1ncnc2c1ncn2[C@@H]1O[C@H](CNC(=O)[C@H](N)Cc2cscn2)[C@@H](O)[C@H]1O | inconclusive: 0.0046 µM [activator, full curve, poor fit] | – |
| COc1ccccc1CNC(=O)c1c(N)n(CCCN2CCOCC2)c2nc3ccccc3nc12 | inconclusive: 0.651 µM [activator, full curve] | – |
| COc1ccc(C2NC(=S)NC(C)=C2C(=O)c2ccccc2)cc1OC (stereo not drawn) | active: 23.1 µM | – |
| COc1ccc(C(C(=O)Nc2ccc(F)cc2)N(C(=O)Cn2nnc3ccccc32)C2CC2)cc1 (stereo not drawn) | inactive | – |
| COc1ccc(CN(C)C(C)C(=O)Nc2ccc(S(=O)(=O)N3CCCCC3)cc2)c(OC)c1 (stereo not drawn) | inconclusive: 29.1 µM [activator, single point] | – |
| Cc1cc(=O)[nH]c(SCC(=O)C23CC4CC(CC(C4)C2)C3)c1C#N | inconclusive: 18.4 µM [activator, partial curve, poor fit] | – |
| COCCNC(=O)CSc1nc2sccc2c(=O)n1-c1ccccc1 | inconclusive: 18.4 µM [activator, single point] | – |
| FC(F)Sc1ccc(NC(=S)NC(c2ccccc2)c2ccccc2)cc1 | inconclusive: 5.8 µM [activator, partial curve] | – |
| C/C(CC(=O)Nc1ccc2c(c1)OCO2)=N\NC(=O)c1ccccc1N | inconclusive: 7.31 µM [activator, partial curve, poor fit] | – |

Ordered by number of heavy atoms (largest number first): three of the compounds above

| Compound | Potency | re-replication activation |
| --- | --- | --- |
| COc1ccccc1CNC(=O)c1c(N)n(CCCN2CCOCC2)c2nc3ccccc3nc12 | inconclusive: 0.651 µM [activator, full curve] | – |
| COc1ccc(C2CC(=O)c3c(O)cc(O)cc3O2)c(CC=C(C)C)c1OC (stereo not drawn) | inconclusive: 0.461 µM [activator, partial curve, poor fit] | – |
| COc1ccc(-c2noc3c2-c2nc(-c4ccccc4F)sc2CC3)cc1 | inconclusive: 0.116 µM [activator, full curve, poor fit] | – |

Continuation.

| Compound | Potency | re-replication activation |
| --- | --- | --- |
| COc1ccccc1Nc1nc(N)nc(CCl)n1 | active: 11.6 µM | – |
| Cc1ccc2c(Cl)c(C(=O)NCC3CCCO3)sc2c1 (stereo not drawn) | inconclusive: 0.1 µM [activator, full curve, poor fit] | – |
| COc1cc(NC(=O)CSc2nc3ccccc3n2-c2ccccc2)c(C)cc1[N+](=O)[O-] | inactive | – |
| CNC(=O)c1c(NC(=O)c2cccc(N3C(=O)CCC3=O)c2)sc2c1CCCC2 | inconclusive: 23.1 µM [activator, single point] | – |
| COc1cc(C2C(C#N)=C(N)Oc3c2ccc2ccccc32)ccc1OCC(=O)Nc1cccc(C)c1 (stereo not drawn) | inactive | – |
| Nc1c(S(=O)(=O)c2ccccc2)c2nc3ccccc3nc2n1/N=C/c1ccco1 | inconclusive: 18.4 µM [activator, single point] | – |
| CNC(=O)/C(C#N)=c1\s/c(=C/C(=O)OC)c(=O)n1-c1ccccc1 | inactive | – |
| COc1cccc(C(=O)Nc2nnc(S(=O)(=O)N(C)Cc3ccccc3)s2)c1 | active: 11.6 µM | – |
| CCN(CC)c1ccc(/C=N/NC(=O)c2cccc(S(=O)(=O)N3CCOCC3)c2)c(O)c1 | inconclusive: 20.6 µM [activator, single point] | – |
| Cc1cc(C(=O)CN2CCN(CC(=O)Nc3cccc(F)c3)CC2)c(C)n1C1CC1 | inactive | – |
| COc1ccccc1N1CCN(C2CCCN(Cc3cc(F)cc(F)c3)C2)CC1 (stereo not drawn) | inconclusive: 0.92 µM [activator, full curve, poor fit] | – |
| COc1ccc(NC(=O)c2cc(S(=O)(=O)N3CCCC3)ccc2OC)cc1 | inconclusive: 4.11 µM [activator, full curve, poor fit] | – |
| CCOC(=O)C1=CN(Cc2ccc(OC)cc2)C=C(C(=O)OCC)C1c1cccs1 | inconclusive: 16.4 µM [activator, partial curve, poor fit] | – |
| CCNC(=O)[C@H]1O[C@@H](n2cnc3c(N)nc(NCCc4ccc(CCC(=O)O)cc4)nc32)[C@H](O)[C@@H]1O | inconclusive: 0.708 µM [activator, single point] | – |
| CC(=O)N(C(C)=O)c1ncc2c([nH]c3ccccc32)c1C#N | inactive | – |
| Clc1ccc2c(c1)-c1nnc(Br)n1-c1ccccc1S2 | – | inactive: -3.25% [at 9.22 µM] |
| C=CCN1C2CCCC1CC(NC(=S)Nc1cccc(OC)c1)C2 (stereo not drawn) | inconclusive: 5.8 µM [activator, full curve] | – |
| Cc1cc(C(=O)OCC(=O)c2cccs2)ccc1[N+](=O)[O-] | inactive | – |
| Cc1ccnc(NC(=O)c2cc3cc(F)ccc3s2)c1 | inconclusive: 0.708 µM [activator, partial curve, poor fit] | – |
| Nc1nn(-c2ccccc2)c(N)c1N=Nc1ccc2c(c1)OCO2 | active: 16.4 µM | – |
| CCCN(CCC)CC(O)CN(c1ccccc1)S(=O)(=O)c1ccc(C)cc1 (stereo not drawn) | inconclusive: 3.66 µM [activator, partial curve, poor fit] | – |
| Nc1nnc(-c2ccc([N+](=O)[O-])o2)s1 | inconclusive: 25.9 µM [activator, partial curve, poor fit] | – |
